No constants are given. Whether binding was seen depends on the method and setting. Some binding calls cover weakened binding; strength is not graded here.

Data on 20 molecules can be found in patent US20180244787A1 (Sanofi, published 2018).

The target of this assay is T1, recombinant human CXCR3 (human, UniProt P49682 1-368, limits assumed).
T1 construct: also called C-X-C motif chemokine receptor 3
T1 sequence (looked up): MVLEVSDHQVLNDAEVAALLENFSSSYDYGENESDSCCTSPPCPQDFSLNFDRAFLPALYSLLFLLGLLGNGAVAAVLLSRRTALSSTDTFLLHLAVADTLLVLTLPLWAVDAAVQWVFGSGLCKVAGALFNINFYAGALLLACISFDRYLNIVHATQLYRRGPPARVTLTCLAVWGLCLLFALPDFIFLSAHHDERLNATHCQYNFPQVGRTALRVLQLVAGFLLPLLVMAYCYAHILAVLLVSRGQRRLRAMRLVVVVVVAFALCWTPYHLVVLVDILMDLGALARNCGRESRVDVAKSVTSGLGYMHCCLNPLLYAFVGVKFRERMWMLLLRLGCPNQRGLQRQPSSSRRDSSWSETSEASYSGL
Put plainly: Biacore, recombinant human CXCR3. (Surface plasmon resonance follows binding to a sensor surface in real time, without labels.)

B1: 53Hu37 CDR variant VH N105F / VL N30R/S92R (antibody, V domains shown)
VH: EVQLLESGGGLVQPGGSLRLSCAASGFTFTSYAMSWVRQAPGKGLEWVATISHGGTYTYYPDSVKGRFTISRDNAKNTLYLQMNSLRAEDTAVYYCARHPIYSGFYQGYFDYWGQGTLVTVSS
VL: DIQLTQSPSFLSASVGDRVTITCRASSGVRYLYWYQQKPGKAPKLWIYFTSTLASGVPSRFSGSGSGNEYTLTISSLQPEDFATYYCQQFTRSPYTFGQGTKLEIK
As to B1, the binding entry was “binds”.

B2: 53Hu37 CDR variant VH S103Q / VL N30R/S92R (antibody, V domains shown)
VH: EVQLLESGGGLVQPGGSLRLSCAASGFTFTSYAMSWVRQAPGKGLEWVATISHGGTYTYYPDSVKGRFTISRDNAKNTLYLQMNSLRAEDTAVYYCARHPIYQGNYQGYFDYWGQGTLVTVSS
VL: DIQLTQSPSFLSASVGDRVTITCRASSGVRYLYWYQQKPGKAPKLWIYFTSTLASGVPSRFSGSGSGNEYTLTISSLQPEDFATYYCQQFTRSPYTFGQGTKLEIK
Regarding B2, the binding result was “binds”.

B3: 53Hu37 CDR variant VH N105W / VL 53Hu37 (antibody, V domains shown)
VH: EVQLLESGGGLVQPGGSLRLSCAASGFTFTSYAMSWVRQAPGKGLEWVATISHGGTYTYYPDSVKGRFTISRDNAKNTLYLQMNSLRAEDTAVYYCARHPIYSGWYQGYFDYWGQGTLVTVSS
VL: DIQLTQSPSFLSASVGDRVTITCRASSGVNYLYWYQQKPGKAPKLWIYFTSTLASGVPSRFSGSGSGNEYTLTISSLQPEDFATYYCQQFTSSPYTFGQGTKLEIK
As to B3, the binding entry was “binds”.

B4: 53Hu37 CDR variant VH N105F / VL S92R (antibody, V domains shown)
VH: EVQLLESGGGLVQPGGSLRLSCAASGFTFTSYAMSWVRQAPGKGLEWVATISHGGTYTYYPDSVKGRFTISRDNAKNTLYLQMNSLRAEDTAVYYCARHPIYSGFYQGYFDYWGQGTLVTVSS
VL: DIQLTQSPSFLSASVGDRVTITCRASSGVNYLYWYQQKPGKAPKLWIYFTSTLASGVPSRFSGSGSGNEYTLTISSLQPEDFATYYCQQFTRSPYTFGQGTKLEIK
Consider B4, for which the binding entry is “binds”.

B5: 53Hu37 CDR variant VH S103G / VL N30R/S92R (antibody, V domains shown)
VH: EVQLLESGGGLVQPGGSLRLSCAASGFTFTSYAMSWVRQAPGKGLEWVATISHGGTYTYYPDSVKGRFTISRDNAKNTLYLQMNSLRAEDTAVYYCARHPIYGGNYQGYFDYWGQGTLVTVSS
VL: DIQLTQSPSFLSASVGDRVTITCRASSGVRYLYWYQQKPGKAPKLWIYFTSTLASGVPSRFSGSGSGNEYTLTISSLQPEDFATYYCQQFTRSPYTFGQGTKLEIK
Regarding B5, the binding result is “binds”.

B6: 53Hu37 CDR variant VH S103E / VL N30R/S92R (antibody, V domains shown)
VH: EVQLLESGGGLVQPGGSLRLSCAASGFTFTSYAMSWVRQAPGKGLEWVATISHGGTYTYYPDSVKGRFTISRDNAKNTLYLQMNSLRAEDTAVYYCARHPIYEGNYQGYFDYWGQGTLVTVSS
VL: DIQLTQSPSFLSASVGDRVTITCRASSGVRYLYWYQQKPGKAPKLWIYFTSTLASGVPSRFSGSGSGNEYTLTISSLQPEDFATYYCQQFTRSPYTFGQGTKLEIK
For B6, the binding result was “binds”.

B7: 53Hu37 CDR variant VH N105W / VL S92R (antibody, V domains shown)
VH: EVQLLESGGGLVQPGGSLRLSCAASGFTFTSYAMSWVRQAPGKGLEWVATISHGGTYTYYPDSVKGRFTISRDNAKNTLYLQMNSLRAEDTAVYYCARHPIYSGWYQGYFDYWGQGTLVTVSS
VL: DIQLTQSPSFLSASVGDRVTITCRASSGVNYLYWYQQKPGKAPKLWIYFTSTLASGVPSRFSGSGSGNEYTLTISSLQPEDFATYYCQQFTRSPYTFGQGTKLEIK
In the case of B7, the binding entry is recorded as “binds”.

B8: 53Hu37 CDR variant VH S103C / VL N30R/S92R (antibody, V domains shown)
VH: EVQLLESGGGLVQPGGSLRLSCAASGFTFTSYAMSWVRQAPGKGLEWVATISHGGTYTYYPDSVKGRFTISRDNAKNTLYLQMNSLRAEDTAVYYCARHPIYCGNYQGYFDYWGQGTLVTVSS
VL: DIQLTQSPSFLSASVGDRVTITCRASSGVRYLYWYQQKPGKAPKLWIYFTSTLASGVPSRFSGSGSGNEYTLTISSLQPEDFATYYCQQFTRSPYTFGQGTKLEIK
B8: the binding entry is on record as “binds”.

B9: 53Hu37 CDR variant VH S103N / VL N30R/S92R (antibody, V domains shown)
VH: EVQLLESGGGLVQPGGSLRLSCAASGFTFTSYAMSWVRQAPGKGLEWVATISHGGTYTYYPDSVKGRFTISRDNAKNTLYLQMNSLRAEDTAVYYCARHPIYNGNYQGYFDYWGQGTLVTVSS
VL: DIQLTQSPSFLSASVGDRVTITCRASSGVRYLYWYQQKPGKAPKLWIYFTSTLASGVPSRFSGSGSGNEYTLTISSLQPEDFATYYCQQFTRSPYTFGQGTKLEIK
As for B9, the binding result was “binds”.

B10: 53Hu37 CDR variant VH S103R / VL N30R/S92R (antibody, V domains shown)
VH: EVQLLESGGGLVQPGGSLRLSCAASGFTFTSYAMSWVRQAPGKGLEWVATISHGGTYTYYPDSVKGRFTISRDNAKNTLYLQMNSLRAEDTAVYYCARHPIYRGNYQGYFDYWGQGTLVTVSS
VL: DIQLTQSPSFLSASVGDRVTITCRASSGVRYLYWYQQKPGKAPKLWIYFTSTLASGVPSRFSGSGSGNEYTLTISSLQPEDFATYYCQQFTRSPYTFGQGTKLEIK
As to B10, the binding entry was “binds”.

B11: 53Hu37 CDR variant VH S103A / VL N30R/S92R (antibody, V domains shown)
VH: EVQLLESGGGLVQPGGSLRLSCAASGFTFTSYAMSWVRQAPGKGLEWVATISHGGTYTYYPDSVKGRFTISRDNAKNTLYLQMNSLRAEDTAVYYCARHPIYAGNYQGYFDYWGQGTLVTVSS
VL: DIQLTQSPSFLSASVGDRVTITCRASSGVRYLYWYQQKPGKAPKLWIYFTSTLASGVPSRFSGSGSGNEYTLTISSLQPEDFATYYCQQFTRSPYTFGQGTKLEIK
Regarding B11, the binding result was “binds”.

B12: 53Hu37 CDR variant VH S103D / VL N30R/S92R (antibody, V domains shown)
VH: EVQLLESGGGLVQPGGSLRLSCAASGFTFTSYAMSWVRQAPGKGLEWVATISHGGTYTYYPDSVKGRFTISRDNAKNTLYLQMNSLRAEDTAVYYCARHPIYDGNYQGYFDYWGQGTLVTVSS
VL: DIQLTQSPSFLSASVGDRVTITCRASSGVRYLYWYQQKPGKAPKLWIYFTSTLASGVPSRFSGSGSGNEYTLTISSLQPEDFATYYCQQFTRSPYTFGQGTKLEIK
With B12, the binding result is “binds”.

B13: 53Hu37 CDR variant VH S103T / VL N30R/S92R (antibody, V domains shown)
VH: EVQLLESGGGLVQPGGSLRLSCAASGFTFTSYAMSWVRQAPGKGLEWVATISHGGTYTYYPDSVKGRFTISRDNAKNTLYLQMNSLRAEDTAVYYCARHPIYTGNYQGYFDYWGQGTLVTVSS
VL: DIQLTQSPSFLSASVGDRVTITCRASSGVRYLYWYQQKPGKAPKLWIYFTSTLASGVPSRFSGSGSGNEYTLTISSLQPEDFATYYCQQFTRSPYTFGQGTKLEIK
B13: the binding entry is given as “binds”.

B14: 53Hu37 CDR variant VH S103L / VL N30R/S92R (antibody, V domains shown)
VH: EVQLLESGGGLVQPGGSLRLSCAASGFTFTSYAMSWVRQAPGKGLEWVATISHGGTYTYYPDSVKGRFTISRDNAKNTLYLQMNSLRAEDTAVYYCARHPIYLGNYQGYFDYWGQGTLVTVSS
VL: DIQLTQSPSFLSASVGDRVTITCRASSGVRYLYWYQQKPGKAPKLWIYFTSTLASGVPSRFSGSGSGNEYTLTISSLQPEDFATYYCQQFTRSPYTFGQGTKLEIK
On to B14, for which the binding entry is listed as “binds”.

B15: 53Hu37 CDR variant VH S103M / VL N30R/S92R (antibody, V domains shown)
VH: EVQLLESGGGLVQPGGSLRLSCAASGFTFTSYAMSWVRQAPGKGLEWVATISHGGTYTYYPDSVKGRFTISRDNAKNTLYLQMNSLRAEDTAVYYCARHPIYMGNYQGYFDYWGQGTLVTVSS
VL: DIQLTQSPSFLSASVGDRVTITCRASSGVRYLYWYQQKPGKAPKLWIYFTSTLASGVPSRFSGSGSGNEYTLTISSLQPEDFATYYCQQFTRSPYTFGQGTKLEIK
Regarding B15, the binding result is recorded as “binds”.

B16: 53Hu37 CDR variant VH S103K / VL N30R/S92R (antibody, V domains shown)
VH: EVQLLESGGGLVQPGGSLRLSCAASGFTFTSYAMSWVRQAPGKGLEWVATISHGGTYTYYPDSVKGRFTISRDNAKNTLYLQMNSLRAEDTAVYYCARHPIYKGNYQGYFDYWGQGTLVTVSS
VL: DIQLTQSPSFLSASVGDRVTITCRASSGVRYLYWYQQKPGKAPKLWIYFTSTLASGVPSRFSGSGSGNEYTLTISSLQPEDFATYYCQQFTRSPYTFGQGTKLEIK
Consider B16, for which the binding result was “binds”.

B17: 53Hu37 CDR variant VH S103P / VL N30R/S92R (antibody, V domains shown)
VH: EVQLLESGGGLVQPGGSLRLSCAASGFTFTSYAMSWVRQAPGKGLEWVATISHGGTYTYYPDSVKGRFTISRDNAKNTLYLQMNSLRAEDTAVYYCARHPIYPGNYQGYFDYWGQGTLVTVSS
VL: DIQLTQSPSFLSASVGDRVTITCRASSGVRYLYWYQQKPGKAPKLWIYFTSTLASGVPSRFSGSGSGNEYTLTISSLQPEDFATYYCQQFTRSPYTFGQGTKLEIK
As for B17, the binding result is listed as “binds”.

B18: 53Hu37 CDR variant VH S103F / VL N30R/S92R (antibody, V domains shown)
VH: EVQLLESGGGLVQPGGSLRLSCAASGFTFTSYAMSWVRQAPGKGLEWVATISHGGTYTYYPDSVKGRFTISRDNAKNTLYLQMNSLRAEDTAVYYCARHPIYFGNYQGYFDYWGQGTLVTVSS
VL: DIQLTQSPSFLSASVGDRVTITCRASSGVRYLYWYQQKPGKAPKLWIYFTSTLASGVPSRFSGSGSGNEYTLTISSLQPEDFATYYCQQFTRSPYTFGQGTKLEIK
As to B18, the binding result is “binds”.

B19: 53Hu37 CDR variant VH S103I / VL N30R/S92R (antibody, V domains shown)
VH: EVQLLESGGGLVQPGGSLRLSCAASGFTFTSYAMSWVRQAPGKGLEWVATISHGGTYTYYPDSVKGRFTISRDNAKNTLYLQMNSLRAEDTAVYYCARHPIYIGNYQGYFDYWGQGTLVTVSS
VL: DIQLTQSPSFLSASVGDRVTITCRASSGVRYLYWYQQKPGKAPKLWIYFTSTLASGVPSRFSGSGSGNEYTLTISSLQPEDFATYYCQQFTRSPYTFGQGTKLEIK
As for B19, the binding entry is given as “binds”.

B20: 53Hu37 CDR variant VH S103H / VL N30R/S92R (antibody, V domains shown)
VH: EVQLLESGGGLVQPGGSLRLSCAASGFTFTSYAMSWVRQAPGKGLEWVATISHGGTYTYYPDSVKGRFTISRDNAKNTLYLQMNSLRAEDTAVYYCARHPIYHGNYQGYFDYWGQGTLVTVSS
VL: DIQLTQSPSFLSASVGDRVTITCRASSGVRYLYWYQQKPGKAPKLWIYFTSTLASGVPSRFSGSGSGNEYTLTISSLQPEDFATYYCQQFTRSPYTFGQGTKLEIK
Take B20: the binding entry is “binds”.
